Source: PMC11455950, “Effects of SZV-2649, a new multiple ion channel inhibitor mexiletine analogue” (Scientific Reports, 2024)
“And” between values parts separate entries of the source, which are not always exact repeats. Identical values can stand only once.

System: anesthetized dogs
Experiment: Atrial fibrillation induced by carbachol infusion and burst stimulation in anesthetized dogs
Assay type: in vivo, dog
Parameters: key to AF converted to SR?: N, response not observed; Y, response observed
Conditions: i.v. 0.3 mg/kg, individual dogs

CCCNCC(O)COc1ccccc1C(=O)CCc1ccccc1 (centres unmarked) [propafenone, reference compound]
AF converted to SR?: Y | AF converted to SR? (time printed in cell) (0.3 mg/kg): 291 s and 89 s and 589 s and 15 s and 145 s
